Results are given in words; binding and its absence hold for the method and conditions named. Binding seen in cells or lysates may run through a third protein. These calls come from enrichment with a bait or labelling near it, and not all partners need be listed.
Target: α-Spectrin (Drosophila melanogaster (endogenous in testis)) (UniProt P13395)
Assay: affinity purification with mass spectrometry

Protein sequences, listed by entry. Tags and fused reporters are not part of them.
UniProt P13395: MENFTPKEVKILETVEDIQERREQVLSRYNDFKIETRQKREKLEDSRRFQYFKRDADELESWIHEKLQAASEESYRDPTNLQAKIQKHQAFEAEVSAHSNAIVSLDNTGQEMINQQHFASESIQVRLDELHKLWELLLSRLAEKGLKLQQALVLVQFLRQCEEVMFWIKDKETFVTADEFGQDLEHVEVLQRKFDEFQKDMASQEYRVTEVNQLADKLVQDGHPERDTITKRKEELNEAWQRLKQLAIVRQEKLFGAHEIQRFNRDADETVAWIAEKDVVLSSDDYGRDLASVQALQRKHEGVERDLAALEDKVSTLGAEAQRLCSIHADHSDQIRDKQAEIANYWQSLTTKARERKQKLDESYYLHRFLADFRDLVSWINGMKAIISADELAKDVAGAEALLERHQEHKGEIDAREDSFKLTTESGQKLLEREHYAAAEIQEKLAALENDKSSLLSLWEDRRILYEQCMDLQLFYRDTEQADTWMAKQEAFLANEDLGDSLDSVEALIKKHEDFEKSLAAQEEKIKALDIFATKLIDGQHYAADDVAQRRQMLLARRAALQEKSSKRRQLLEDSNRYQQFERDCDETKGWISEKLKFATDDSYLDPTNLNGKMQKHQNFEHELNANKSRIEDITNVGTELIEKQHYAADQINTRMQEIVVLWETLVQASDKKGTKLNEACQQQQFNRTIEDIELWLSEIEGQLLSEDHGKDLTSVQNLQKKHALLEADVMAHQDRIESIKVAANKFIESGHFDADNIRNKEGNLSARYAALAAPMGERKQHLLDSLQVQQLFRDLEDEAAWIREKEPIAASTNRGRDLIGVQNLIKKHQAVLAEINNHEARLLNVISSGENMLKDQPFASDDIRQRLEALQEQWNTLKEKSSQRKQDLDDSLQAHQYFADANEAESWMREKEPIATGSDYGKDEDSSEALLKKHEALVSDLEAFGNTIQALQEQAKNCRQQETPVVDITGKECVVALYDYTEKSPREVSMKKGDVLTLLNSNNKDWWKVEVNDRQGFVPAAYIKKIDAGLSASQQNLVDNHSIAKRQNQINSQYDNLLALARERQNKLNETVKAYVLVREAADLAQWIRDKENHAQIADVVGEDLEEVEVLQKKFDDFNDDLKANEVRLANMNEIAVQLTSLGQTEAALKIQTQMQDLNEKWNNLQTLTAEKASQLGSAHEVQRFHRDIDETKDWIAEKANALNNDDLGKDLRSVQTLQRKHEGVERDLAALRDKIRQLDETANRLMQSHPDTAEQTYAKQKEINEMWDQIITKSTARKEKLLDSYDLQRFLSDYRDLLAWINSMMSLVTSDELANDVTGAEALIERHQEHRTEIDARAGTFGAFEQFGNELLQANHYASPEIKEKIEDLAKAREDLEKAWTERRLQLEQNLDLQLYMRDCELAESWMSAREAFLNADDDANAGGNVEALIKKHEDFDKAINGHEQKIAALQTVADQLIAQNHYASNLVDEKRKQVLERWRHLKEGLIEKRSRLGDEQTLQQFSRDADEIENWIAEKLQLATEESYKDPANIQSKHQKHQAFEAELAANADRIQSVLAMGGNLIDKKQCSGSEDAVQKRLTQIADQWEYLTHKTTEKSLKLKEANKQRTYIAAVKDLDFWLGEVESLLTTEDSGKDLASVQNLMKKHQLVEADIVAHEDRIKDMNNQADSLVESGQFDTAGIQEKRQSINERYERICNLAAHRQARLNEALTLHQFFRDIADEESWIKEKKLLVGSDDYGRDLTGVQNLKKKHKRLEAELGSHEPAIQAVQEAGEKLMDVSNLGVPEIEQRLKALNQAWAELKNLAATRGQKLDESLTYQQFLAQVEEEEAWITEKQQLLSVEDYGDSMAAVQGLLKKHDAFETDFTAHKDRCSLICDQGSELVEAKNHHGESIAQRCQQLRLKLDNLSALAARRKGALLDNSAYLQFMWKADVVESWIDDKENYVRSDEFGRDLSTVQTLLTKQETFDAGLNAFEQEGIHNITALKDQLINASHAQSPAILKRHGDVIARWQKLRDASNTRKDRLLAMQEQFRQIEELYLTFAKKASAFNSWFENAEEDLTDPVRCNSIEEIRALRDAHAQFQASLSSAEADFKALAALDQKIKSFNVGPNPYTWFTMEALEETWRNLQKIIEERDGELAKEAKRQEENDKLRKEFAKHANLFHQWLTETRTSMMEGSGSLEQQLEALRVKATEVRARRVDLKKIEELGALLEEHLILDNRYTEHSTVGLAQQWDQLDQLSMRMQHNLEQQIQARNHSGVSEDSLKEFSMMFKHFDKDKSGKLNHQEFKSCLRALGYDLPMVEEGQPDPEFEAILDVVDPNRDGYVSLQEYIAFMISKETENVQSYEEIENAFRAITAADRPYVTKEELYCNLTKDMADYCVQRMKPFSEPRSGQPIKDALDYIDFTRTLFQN
UniProt Q00963: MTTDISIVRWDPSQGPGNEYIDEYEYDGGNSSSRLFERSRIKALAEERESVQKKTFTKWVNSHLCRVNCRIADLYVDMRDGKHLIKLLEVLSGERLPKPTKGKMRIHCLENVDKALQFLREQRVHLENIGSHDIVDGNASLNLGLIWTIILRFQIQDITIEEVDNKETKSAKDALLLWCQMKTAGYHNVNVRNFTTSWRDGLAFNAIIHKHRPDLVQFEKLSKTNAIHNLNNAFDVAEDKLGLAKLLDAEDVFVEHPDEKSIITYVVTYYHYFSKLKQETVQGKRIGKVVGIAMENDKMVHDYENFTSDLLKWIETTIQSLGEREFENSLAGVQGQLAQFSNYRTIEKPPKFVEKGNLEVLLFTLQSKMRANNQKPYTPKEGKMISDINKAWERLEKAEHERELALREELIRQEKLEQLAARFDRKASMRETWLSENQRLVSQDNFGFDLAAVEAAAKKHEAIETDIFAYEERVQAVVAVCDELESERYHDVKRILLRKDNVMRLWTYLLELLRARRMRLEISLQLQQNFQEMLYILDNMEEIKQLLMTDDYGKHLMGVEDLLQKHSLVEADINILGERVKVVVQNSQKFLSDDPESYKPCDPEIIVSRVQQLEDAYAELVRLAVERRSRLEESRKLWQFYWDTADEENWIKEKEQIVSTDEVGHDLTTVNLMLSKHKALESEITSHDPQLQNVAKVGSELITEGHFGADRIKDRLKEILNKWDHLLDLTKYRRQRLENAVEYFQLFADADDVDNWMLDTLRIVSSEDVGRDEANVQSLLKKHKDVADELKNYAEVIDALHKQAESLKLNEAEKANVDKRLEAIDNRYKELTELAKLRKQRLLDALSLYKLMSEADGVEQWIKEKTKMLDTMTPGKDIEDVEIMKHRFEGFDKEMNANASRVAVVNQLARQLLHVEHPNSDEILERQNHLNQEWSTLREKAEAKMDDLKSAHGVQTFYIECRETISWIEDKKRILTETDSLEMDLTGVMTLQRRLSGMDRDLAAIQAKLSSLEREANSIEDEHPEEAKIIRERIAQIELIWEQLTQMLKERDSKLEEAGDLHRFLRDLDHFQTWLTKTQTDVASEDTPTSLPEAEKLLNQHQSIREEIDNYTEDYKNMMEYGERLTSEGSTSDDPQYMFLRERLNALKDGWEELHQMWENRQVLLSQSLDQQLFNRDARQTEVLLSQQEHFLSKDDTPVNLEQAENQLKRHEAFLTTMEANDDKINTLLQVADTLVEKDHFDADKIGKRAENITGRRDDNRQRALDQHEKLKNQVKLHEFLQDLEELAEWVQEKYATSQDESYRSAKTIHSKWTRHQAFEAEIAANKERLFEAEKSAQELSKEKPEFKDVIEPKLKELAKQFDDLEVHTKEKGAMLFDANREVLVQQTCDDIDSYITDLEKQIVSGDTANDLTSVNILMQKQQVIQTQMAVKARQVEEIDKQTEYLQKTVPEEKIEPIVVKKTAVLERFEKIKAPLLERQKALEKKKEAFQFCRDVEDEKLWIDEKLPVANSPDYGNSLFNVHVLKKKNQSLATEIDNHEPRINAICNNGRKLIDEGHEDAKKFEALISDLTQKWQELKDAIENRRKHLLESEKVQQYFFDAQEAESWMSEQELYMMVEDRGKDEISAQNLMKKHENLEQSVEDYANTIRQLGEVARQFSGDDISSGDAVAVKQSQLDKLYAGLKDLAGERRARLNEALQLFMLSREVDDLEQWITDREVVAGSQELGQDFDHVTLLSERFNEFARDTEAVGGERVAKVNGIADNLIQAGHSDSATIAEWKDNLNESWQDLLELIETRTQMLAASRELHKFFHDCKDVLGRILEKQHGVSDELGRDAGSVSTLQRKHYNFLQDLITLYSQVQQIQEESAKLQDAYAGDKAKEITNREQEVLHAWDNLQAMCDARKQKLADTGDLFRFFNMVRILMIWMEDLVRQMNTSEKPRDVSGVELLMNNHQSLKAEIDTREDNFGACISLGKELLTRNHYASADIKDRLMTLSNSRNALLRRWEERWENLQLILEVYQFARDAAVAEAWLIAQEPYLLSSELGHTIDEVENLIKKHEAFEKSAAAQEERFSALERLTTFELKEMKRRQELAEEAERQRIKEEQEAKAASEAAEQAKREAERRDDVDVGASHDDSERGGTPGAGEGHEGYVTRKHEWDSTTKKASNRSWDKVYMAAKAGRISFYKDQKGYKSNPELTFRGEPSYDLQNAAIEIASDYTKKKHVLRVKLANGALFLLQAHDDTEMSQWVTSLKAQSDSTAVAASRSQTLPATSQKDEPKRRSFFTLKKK

binding: binds
Substance: β-Spectrin (from UniProt Q00963 1-2291)
